In PubChem BioAssay AID2551 (National Center for Advancing Translational Sciences (NCATS), 2010):
Out of some 310,000 compounds screened, about 17,000 (5.5%) were called active. The inconclusive results got no clear call from the source; some entries with a clear call stand among them for comparison. The call rests on the fitted dose curve; in most records, active means well fitted inhibition curve with a large enough effect; inconclusive means small, poorly fitted or top-dose-only effect, or effect the other way; inactive means no such curve, though single readings can be large or run the other way. Where the call is inconclusive, the potency comes from a doubtful curve fit.

The chains behind the UniProt entries cited, without tags or fusion partners. Where a name states a change or a piece, a line headed by the entry shows the natural chain unless it says otherwise.
UniProt P51450: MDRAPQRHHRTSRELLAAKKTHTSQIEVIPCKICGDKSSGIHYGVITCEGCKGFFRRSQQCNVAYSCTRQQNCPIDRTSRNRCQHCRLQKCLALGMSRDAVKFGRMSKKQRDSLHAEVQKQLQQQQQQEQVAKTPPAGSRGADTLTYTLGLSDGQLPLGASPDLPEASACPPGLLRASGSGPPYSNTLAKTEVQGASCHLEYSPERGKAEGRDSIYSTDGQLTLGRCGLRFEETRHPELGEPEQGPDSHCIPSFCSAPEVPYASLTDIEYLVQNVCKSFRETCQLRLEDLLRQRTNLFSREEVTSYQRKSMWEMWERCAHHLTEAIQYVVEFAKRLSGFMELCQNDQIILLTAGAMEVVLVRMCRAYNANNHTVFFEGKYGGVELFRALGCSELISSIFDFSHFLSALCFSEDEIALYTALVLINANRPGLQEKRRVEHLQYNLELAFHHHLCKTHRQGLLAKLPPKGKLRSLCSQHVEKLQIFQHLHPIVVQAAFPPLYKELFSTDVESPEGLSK

Target: Nuclear receptor ROR-gamma (Mus musculus) (UniProt P51450)
Experiment: qHTS for inhibitors of ROR gamma transcriptional activity; further: nearly all actives have a fitted effect of over 60% in size
Details: Drosophila S2 Gal4-RORgamma UAS-luciferase reporter, 20 h; activity change, negative = inhibition: at 53.6 µM (top of the series)
Outline: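 Compounds are pin-transferred onto Drosophila Schneider cells expressing a copper-inducible Gal4–ROR gamma transactivation domain fusion. After 1 hr, copper sulfate is added to 700 uM final; luciferase is read 20 hr later.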
On the % scale 0 is the no-effect control and ±100 the full control effect; potency means the concentration at half of the fitted maximal effect.

Potency, active:
COc1ccc(/C=N/NC(=S)SC)cc1OC 1.58 µM
O=C(NC(=S)NC1CC1)c1cccnc1 5.62 µM
C=CCN1C(=O)N/C(=C/c2ccc(N3CCOCC3)o2)C1=O 7.08 µM
Cc1cccc(/C=N/Nc2nncc3ccccc23)c1 2.51 µM
CCc1nc(NC(C)C)c2oc3ccccc3c2n1 12.6 µM
CCOC(=O)c1ccc(NC(=S)Nc2cc(C)cc(C)n2)cc1 2 µM
C/C(=N\Nc1nc(C)cc(C)n1)c1ccc(C)o1 7.08 µM
Cc1cc2ccccc2n1CCNC(=O)C(C)Oc1ccccc1 (configuration not stated) 7.08 µM
[O-]/C(=C(\C(=S)NCc1ccco1)[n+]1ccccc1)c1ccccc1Br 22.4 µM
CCc1cc2ccc(OC)cc2nc1SCC(=O)NNC(=O)c1ccco1 17.8 µM
Cc1nn2c([nH]c(=O)c3ccccc32)c1C=O 4.47 µM
Cc1cnc(C(=O)Nc2ccccc2-c2ccc(C)o2)cn1 7.08 µM
Cc1ccc(NC(=S)NC(NC(=O)c2ccco2)C(Cl)(Cl)Cl)cc1 (configuration not stated) 11.2 µM
Cc1ccc2nc(NC(=O)c3ccc(-c4nc5ccccc5s4)s3)sc2c1 7.94 µM

Potency, inactive:
COC(=O)c1ccc(CNC(=O)C2CCC(=O)N(CCCc3ccccc3)C2)cc1 (configuration not stated)
CC1CCCC(NC(=O)CSc2nnc(N)s2)C1C (configuration not stated)
COc1ccc2c(c1)O[C@@H](c1ccc3c(c1)OCO3)[C@H](OC(=O)Nc1ccc(OC(F)F)cc1)C2=O
CCCN1C(=O)/C(=N\OCC(=O)NCC(F)(F)F)c2ccccc21
Cc1cc(C)nc(SCc2ccc(C(=O)N/N=C3\CCCC(=O)C3)cc2)n1
O=C(O)c1c(C(=O)O)c2ccccc2[nH]c1=O
CCOc1ncccc1C(=O)N1CCCSC1=Nc1ccc(C(C)=O)cc1
Cc1cc2cc(C)c(NCCNC(=O)c3cccs3)nc2cc1C
Cc1cc(NC(=O)CSc2nc3cc(C)c(C)cc3cc2C)no1
CC(=O)Nc1ccc(Nc2nc(C)nc3c2oc2ccccc23)cc1
O=S(=O)(c1ccc(F)c(F)c1F)N1CCN(C(=S)Nc2ccccc2)CC1
CCOC(=O)c1c(/N=C/N(C)C)sc(/C=N/Nc2ccccc2)c1-c1ccc(Cl)cc1
Cn1ccnc1SCC(=O)c1cccc(Br)c1
O=C(CSc1nnc(-c2ccc(Cl)cc2)n1CC1CCCO1)NC1CCS(=O)(=O)C1 (configuration not stated)
COc1ccc2c(c1)c(CC(=O)Nc1nnc(C3CC3)s1)c(C)n2C(=O)c1ccc(Cl)cc1
CC(C)(CC(=O)O)CC(=O)Nc1ccccc1Oc1ccccc1
COC(=O)/C(=C/c1ccco1)NC(=O)c1ccc(Br)o1
Cc1ccccc1-c1nc(CS(=O)(=O)CC(=O)N2CCOCC2)c(C)o1
CN(Cc1ccccn1)C(=O)C1CCC(=O)N(Cc2cccc(C(F)(F)F)c2)C1 (configuration not stated)
O=C(Nc1cccc2ccccc12)N1CC=CCC1
Cc1c(C(=O)N2CCC(C)CC2)cccc1[N+](=O)[O-]
Cc1cc(OCc2nnc(SC(C)C(=O)O)n2Cc2ccccc2)ccc1Cl (configuration not stated)
Cc1ccc(C)c(N2CCN(C(=O)c3ccc(CS(=O)Cc4cccc(Cl)c4)o3)CC2)c1 (configuration not stated)
OCCN1CCN(c2ncnc3sc4c(c23)CCCC4)CC1
CCCNC(=O)c1ccc2c(=O)c(O)c(-c3cccc(Br)c3)[nH]c2c1

Potency, inconclusive:
CC(C)CCC(C)NC(=O)Cc1ccc(S(=O)(=O)N2CCOCC2)s1 (configuration not stated) 3.55 µM [inhibitor, single point]
Cc1cc(C(=O)CSc2nnnn2C)c(C)n1CCc1ccc(Cl)cc1 2.24 µM [inhibitor, partial curve, poor fit]
Cc1ccc(-c2nn(-c3ccccc3)cc2C(=O)Nc2ccc(C)c(S(=O)(=O)N3CCOCC3)c2)cc1 7.94 µM [activator, partial curve, poor fit]
CCOC(=O)c1c(C)n(C)c2ccc(OC)c(NC(=O)CCN3CCC(Cc4ccccc4)CC3)c12 0.224 µM [inhibitor, full curve]
CCN(CC)CCN1C(=O)/C(=C\c2ccc(Cl)c([N+](=O)[O-])c2)SC1=Nc1ccc(OC)cc1 11.2 µM [inhibitor, single point]
N#Cc1ccsc1NC(=O)c1cnccn1 31.6 µM [inhibitor, partial curve, poor fit]
CCN(CC)c1nc(Nc2ccc([N+](=O)[O-])cc2)nc(N(CC)CC)n1 31.6 µM [activator, single point]
CCN(CC)C(=O)c1sc(NC(=O)c2ccc(C)c([N+](=O)[O-])c2)c(C#N)c1C 11.2 µM [activator, partial curve, poor fit]
Cc1cccc(SCC(=O)Nc2ccc3c(c2)OCCO3)c1 4.47 µM [activator, partial curve]
Cc1ccc(-c2nc(C)sc2CC(=O)Nc2cccc(C)c2C)cc1 35.5 µM [activator, single point]
CC(=O)Nc1ccc(C(=O)N/N=C/c2ccccc2OC(=O)c2ccc(Cl)cc2)cc1 11.2 µM [inhibitor, partial curve]
CCOc1ccc(S(=O)(=O)/N=C(/Nc2ccc(OC)cc2)c2ccccc2)cc1 12.6 µM [activator, single point]
O=C(NNC(=S)Nc1ccc(Cl)cc1)c1ccccc1 6.31 µM [inhibitor, partial curve]
O=C(CSc1nc2ccccc2s1)c1cc2ccccc2o1 15.8 µM [inhibitor, single point]
O=C(N/N=C/C(Br)=C/c1ccccc1)c1cccnc1 35.5 µM [inhibitor, single point]
CCOc1ccc(-c2csc(NC(=O)c3ccco3)n2)cc1 35.5 µM [activator, single point]
CCS(=O)(=O)N1N=C(c2ccc(NS(C)(=O)=O)cc2)CC1c1ccccc1 (configuration not stated) 15.8 µM [activator, partial curve]
CCOc1cc2[nH]c(=S)n(CCN3CCCCC3C)c(=O)c2cc1OCC (configuration not stated) 10 µM [inhibitor, partial curve]
NC(=O)c1ccsc1NC(=O)c1ccc(N2CCCC2=O)cc1 20 µM [inhibitor, single point]
N#Cc1ccsc1NC(=O)COC(=O)c1cc2ccccc2cc1O 10 µM [activator, partial curve]
CCOC(=O)c1sc(NC(=O)c2ccc(C)o2)nc1C 12.6 µM [inhibitor, single point]
O=C(Nc1ccc(OC(F)(F)F)cc1)c1cnccn1 35.5 µM [activator, single point]
CS(=O)(=O)Nc1cccc(-c2nc(NCc3cccs3)c3ccccc3n2)c1 35.5 µM [activator, single point]
NC(=S)c1cc2cc(Br)ccc2oc1=O 3.16 µM [inhibitor, single point]
CCC(C(=O)Nc1ccsc1C(=O)OC)c1ccccc1 (configuration not stated) 31.6 µM [activator, single point]
COc1ccc(C(=O)CC(=O)Nc2ccc([N+](=O)[O-])cc2)cc1 15.8 µM [activator, single point]
COc1ccc(NC(=S)N(Cc2ccc(C)cc2)Cc2ccccn2)cc1 15.8 µM [inhibitor, single point]
CC1CCCC(NC(=O)C2CCN(S(=O)(=O)N3CCCCCC3)CC2)C1C (configuration not stated) 11.2 µM [activator, partial curve]
CCN(CC)C(=O)CSc1ncnc2c1cnn2-c1ccccc1 6.31 µM [activator, single point]
CC(C)N(c1ccccc1)c1ccc(NC(=O)CCl)cc1 22.4 µM [inhibitor, single point]
C=Cn1c(C(=O)O)cc(CC)c1-c1ccccc1 25.1 µM [inhibitor, single point]
COCc1nc2ccccc2n1CCCOc1ccccc1 22.4 µM [inhibitor, single point]
CC1(C)CC(=O)/C(=C\c2cccc([N+](=O)[O-])c2)C(C)(C)N1 17.8 µM [inhibitor, single point]
O=c1[nH]nc(Cc2ccc(-c3ccc(Cl)cc3)o2)c2ccccc12 1 µM [inhibitor, full curve, poor fit]
CCCN(CCC)S(=O)(=O)c1ccc(C(=O)NNc2nc(-c3ccccc3)c3cc(Br)ccc3n2)cc1 14.1 µM [inhibitor, partial curve]
Cc1cccc(N2CCN(C(=O)CCCn3c(=O)[nH]c4ccsc4c3=O)CC2C)c1 (configuration not stated) 1.41 µM [activator, partial curve]
CC(OC(=O)c1cc2c(s1)CCCCC2)C(=O)NC(N)=O (configuration not stated) 14.1 µM [activator, partial curve]

4 structures out of the list, ordered by count of non-hydrogen atoms, high to low:
Potency, inconclusive:
CCN(CC)c1nc(Nc2ccc([N+](=O)[O-])cc2)nc(N(CC)CC)n1 31.6 µM [activator, single point]
CCOc1ccc(-c2csc(NC(=O)c3ccco3)n2)cc1 35.5 µM [activator, single point]
CC1(C)CC(=O)/C(=C\c2cccc([N+](=O)[O-])c2)C(C)(C)N1 17.8 µM [inhibitor, single point]
O=C(NNC(=S)Nc1ccc(Cl)cc1)c1ccccc1 6.31 µM [inhibitor, partial curve]

Following part:

Activity change, negative = inhibition, inactive:
O=C(COc1ccc2c(c1)CCC2)N1CCN(c2ccccc2F)CC1 -5.13% [at 10 µM]
